Results published in PubChem BioAssay AID485349 (National Center for Advancing Translational Sciences (NCATS), 2010).
In all, about 320,000 compounds went through this assay and about 620 (0.19%) were called active. This list was built around the results that the source calls inconclusive (neither active nor inactive); the mix of calls is not that of the screen. Calls follow the shape of the dose curve; as a rule, active = well fitted activation curve with a large enough effect; inconclusive = small, poorly fitted or top-dose-only effect; inactive = no such curve, though single readings can be large or run the other way. Potencies beside an inconclusive call are fits to weak or partial responses and may not hold up.

Assay: qHTS Assay for Identifying a Potential Treatment of Ataxia-Telangiectasia; also: nearly all actives have a fitted effect of over 45% in size; as to activation: % of control where 0% means no effect
Settings: […] A-T fibroblasts, KAP-1 phosphorylation AlphaLISA, neocarzinostatin DNA damage 30 min before lysis; series mostly up to 57.5 µM; activation: at the top concentration
Summary of the method: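 ATM-like activity read as KAP-1 phosphorylation via AlphaLISA donor/acceptor antibody pairs after lysis and 6 hr at 25C. Cells were ATM-null patient fibroblasts ([…], hTERT), dosed 60 min, then exposed to the DSB inducer NCS for 30 min.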
Potency is read from the fitted curve at half-maximal effect.

Structure (SMILES)	Potency	activation
C=CCN(CC=C)CCOc1cccc(Oc2ccccc2)c1	inconclusive: 39.8 µM [activator, single point]	
O=C(NCc1ccco1)c1cnn2c(C(F)(F)F)cc(-c3ccccc3)nc12		inactive: -9.87%
COc1cc2c(cc1OC)CN(CC(=O)Nc1ccc(F)cc1)CC2	inconclusive: 0.708 µM [activator, full curve, poor fit]	
CC1CCCC(C)N1C(=O)CSc1nnc(C2CCCCC2)o1 (stereo not given)	active: 31.6 µM	
COc1ccccc1/C=C/c1nc(C#N)c(N(C)C)o1	inconclusive: 39.8 µM [activator, single point]	
CC(C)(C)C(C(=O)Oc1ccccc1)c1ccccc1 (stereo not given)	inconclusive: 39.8 µM [activator, single point]	
CC(=O)CSc1nc(N)c(C#N)c(-c2cccs2)c1C#N		inactive: -0.651%
NS(=O)(=O)c1ccc(NC(=O)c2ccc(S(=O)(=O)N3CCCCCC3)cc2)cc1		inactive: 14%
COc1ccc(NC(=O)N[C@@H](CCSC)C(=O)O)cc1Cl	inconclusive: 6.31 µM [activator, single point]	
Cc1cc2oc(C(=O)NCc3ccncc3)c(C)c2cc1C	inconclusive: 0.631 µM [activator, full curve, poor fit]	
Cc1ccc(Cn2nnc3c(=O)[nH]c(C4CCN(S(=O)(=O)Cc5ccccc5)CC4)nc32)cc1	inconclusive: 39.8 µM [activator, partial curve, poor fit]	
C/C(=N\NC(=O)c1ccccc1C)c1cccnc1	inconclusive: 1 µM [activator, full curve, poor fit]	
Cc1ccc(-c2nc(-c3nccc4ccccc34)oc2-c2ccccc2)cc1	inconclusive: 39.8 µM [activator, single point]	
CCN(C[C@H]1N[C@@](C)(C(=O)OC)[C@H]2C(=O)N(Cc3ccccc3)C(=O)[C@@H]12)C(=O)C1CCCCC1	inconclusive: 39.8 µM [activator, partial curve]	
CCOc1cc(CN2CCCC(CNC(=O)c3ccc(F)cc3)C2)ccc1OC (stereo not given)	inconclusive: 0.631 µM [activator, full curve, poor fit]	
O=c1/c(=C\c2cc([N+](=O)[O-])cc([N+](=O)[O-])c2O)sc2nc3ccccc3n12		inactive: -12.3%
CCCOc1ccccc1Cn1c(=O)oc2ccccc21	inconclusive: 12.6 µM [activator, partial curve]	
Cc1cc(C)n2nc(SCC(=O)N3CCC(C)CC3)nc2n1	inconclusive: 39.8 µM [activator, single point]	
COc1cc2oc(-c3ccc(O)cc3)cc(=O)c2c(O)c1OC		inactive: 8.11%
Cc1oc2c(c1C(=O)c1ccc(Cl)cc1)C(=O)C(=O)c1ccccc1-2	inconclusive: 7.94 µM [activator, single point]	
OCc1ccnc2c(O)cccc12		inactive: 0.12%
O=C(/C=C/c1cccc2ccccc12)c1ccncc1		inactive: -4.52%
Cc1ccc(C#CC(C)(O)C(C)(C)C)cn1 (stereo not given)	inconclusive: 39.8 µM [activator, partial curve, poor fit]	
COCCN(C(=O)CNC(=O)c1cccs1)C(C(=O)NC1CCCC1)c1cccs1 (stereo not given)	inconclusive: 0.708 µM [activator, full curve, poor fit]	

Structure (SMILES)	Potency	activation
c1ccc(Nc2ccc3c4c(cccc24)CC3)cc1	inconclusive: 39.8 µM [activator, single point]	
O=[N+]([O-])c1cccc(S(=O)(=O)NCCc2cn3ccccc3n2)c1	inconclusive: 3.16 µM [activator, full curve, poor fit]	
CC1(C)Cc2c(C#N)c(NC3CCCCC3)nc(-c3ccco3)c2CO1	inconclusive: 39.8 µM [activator, single point]	
S=C1N(c2ccccc2)CN(CCN2CCOCC2)CN1c1ccccc1	inconclusive: 39.8 µM [activator, partial curve, poor fit]	
CC(=O)Nc1ccc(S(=O)(=O)N2CCN(c3ccc(C)c(Cl)c3)CC2)cc1	inconclusive: 11.2 µM [activator, partial curve, poor fit]	
Cc1ccc(NS(=O)(=O)c2csc(C(N)=O)c2)cc1C	inconclusive: 39.8 µM [activator, partial curve]	
COc1ccc(-c2c(C)nc(N)nc2-c2ccc(OC)cc2O)cc1		inactive: -1.49%
Clc1ccc(N2N=C(c3cccs3)CC2c2ccco2)cc1 (stereo not given)	active: 22.4 µM	
COC(=O)c1ccc(C2N=C(c3cccs3)CC(c3ccccc3O)N2)cc1 (stereo not given)	inconclusive: 28.2 µM [activator, single point]	
C=CCNC(=O)c1c(CSc2ccccc2)noc1C(=O)NCc1ccccc1	inconclusive: 10 µM [activator, partial curve]	
O=C(NNC(=O)c1cccc(Br)c1)Nc1ccc(Cl)cc1	active: 28.2 µM	
C=CCn1c(O)c(C2=c3ccccc3=NC2=O)sc1=Nc1ccc(O)cc1	inconclusive: 28.2 µM [activator, single point]	
CC(C)Nc1nc(NC(N)=S)nc(NC(C)C)n1		inactive: -7.7%
Cc1cc(Oc2ccc(N)cn2)ccc1Cl		inactive: -8.77%
O=C(Cn1c(=O)c2c3c(sc2n(Cc2ccccc2)c1=O)CCCC3)NCCO	inconclusive: 0.708 µM [activator, full curve, poor fit]	
CC1(C)Cc2ccccc2C2=NNC(=O)C2=N1	inconclusive: 35.5 µM [activator, single point]	
CC1Cc2cc(/C(O)=C3/C(=O)C(=O)N(CCN4CCOCC4)C3c3cccc(Cl)c3)ccc2O1 (stereo not given)		inactive: -2.26%
O=C(c1ccco1)N1CCCC(N2CCN(c3ccccc3F)CC2)C1 (stereo not given)		inactive: -1.01%
CC(C)(C)c1cc2cccnc2n1Cc1ccccc1	active: 20 µM	
c1ccc(-c2noc(CSc3nnnn3-c3ccccc3)n2)cc1	inconclusive: 28.2 µM [activator, partial curve]	
CC(=O)C(Cl)C(=O)Nc1ccccc1 (stereo not given)	inconclusive: 15.8 µM [activator, single point]	
Cc1nnc(SCC(=O)NC(=O)Nc2ccc3c(c2)OCCO3)n1N	active: 0.708 µM	
COc1cc(OC)cc(C(=O)Nc2cc(NC(=O)c3ccco3)ccc2OC)c1		inactive: 10%
O=C(CSc1nnc(-c2cccs2)n1C1CC1)NCC1CCCO1 (stereo not given)		inactive: -1.45%

Structure (SMILES)	Potency	activation
Cc1cc(C(F)(F)F)nc(NCc2ccc(F)cc2)n1	inconclusive: 39.8 µM [activator, single point]	
Brc1ccccc1CN1CCC(Cc2ccccc2)CC1	inconclusive: 35.5 µM [activator, single point]	
CCCCn1c(SCC(=O)N2CCCCC2C)nc2cc(S(N)(=O)=O)ccc21 (stereo not given)	inconclusive: 8.91 µM [activator, partial curve]	
CC(C)CC(=O)Nc1c2c(nn1-c1cccc(Cl)c1)CS(=O)C2 (stereo not given)	inconclusive: 6.31 µM [activator, single point]	
Cc1ccc(NC(=O)c2cc(=O)c3ccccc3o2)cc1S(=O)(=O)N1CCCCC1	inconclusive: 0.708 µM [activator, partial curve, poor fit]	
CC(C)c1ccccc1OCCNC(=S)NC(=O)c1cccnc1		inactive: 3.13%
C=CCn1c(N)c(C(=O)Nc2cccc(C)c2)c2nc3ccccc3nc21	inconclusive: 39.8 µM [activator, single point]	
COc1cccc(CNC(=O)C(CC(C)C)NC(=O)c2ccccc2C)c1 (stereo not given)	inconclusive: 0.708 µM [activator, full curve]	
CC1(C)CC(=O)C(C2C3=C(CC(C)(C)CC3=O)OC3=C2C(=O)CC(C)(C)C3)=C(O)C1	inconclusive: 39.8 µM [activator, single point]	
O=C(Nc1ccc(Cl)c(Cl)c1)c1ccc(Cn2c(=O)[nH]c3ccsc3c2=O)cc1		inactive: 12.1%
CN(Cc1cccc([N+](=O)[O-])c1)Cc1cccc2ccccc12		inactive: 4.53%
O=C(Nn1cnc2ccccc2c1=O)c1ccc(Br)cc1		inactive: 16.7%
CC(=O)NNc1cc(C)nc(N)n1	inconclusive: 3.16 µM [activator, partial curve]	
COc1ccc(NS(=O)(=O)c2cccc(C(=O)N/N=C/c3cn(-c4ccccc4)nc3-c3ccccc3)c2)cc1	inconclusive: 39.8 µM [activator, single point]	
CC(NS(=O)(=O)OCC(Cl)(Cl)Cl)c1ccc(C(C)(C)C)cc1 (stereo not given)	inconclusive: 31.6 µM [activator, single point]	
CCN(CC)c1ccc2c(C)c(CO)c(=O)oc2c1	inconclusive: 28.2 µM [activator, partial curve]	
CC(C)(C)C(=O)/C(=C/c1ccc(Cl)cc1)n1cncn1	inconclusive: 22.4 µM [activator, single point]	
CC1(C)COC(c2cccn2Cc2ccccc2Cl)=N1	inconclusive: 39.8 µM [activator, single point]	
CCOc1ccc(CCNC(=O)CSc2cc(=O)n(C)c3ccccc23)cc1OCC	inconclusive: 0.631 µM [activator, partial curve, poor fit]	
C=C(C)Cn1c(=O)c2c(nc3n2CCCN3CCc2ccccc2)n(C)c1=O	inconclusive: 5.01 µM [activator, partial curve]	
O=C(CNC(=O)c1ccc(Cl)cc1Cl)OCCOc1ccccc1F	inconclusive: 7.94 µM [activator, single point]	
Cc1ccc(N(C(C)C(=O)Nc2ccccc2C(=O)N2CCOCC2)S(C)(=O)=O)cc1C (stereo not given)	inconclusive: 1.78 µM [activator, partial curve]	

Single records, as listed above:
`O=C(Nc1ccc(Cl)c(Cl)c1)c1ccc(Cn2c(=O)[nH]c3ccsc3c2=O)cc1` as listed: activation: inactive: 12.1%
`CC(C)(C)C(=O)/C(=C/c1ccc(Cl)cc1)n1cncn1` as listed: Potency: inconclusive: 22.4 µM [activator, single point]
`CC(C)c1ccccc1OCCNC(=S)NC(=O)c1cccnc1` as listed: activation: inactive: 3.13%
`CC1(C)COC(c2cccn2Cc2ccccc2Cl)=N1` as listed: Potency: inconclusive: 39.8 µM [activator, single point]
